From publication PMC6034817
These are yes or no findings as the source states them, for the method shown. Binding seen in cells or lysates may run through a third protein. Some binding calls cover weakened binding; strength is not graded here.

Chains of the proteins cited; added tags and fusions are not shown.
UniProt Q9WUD1: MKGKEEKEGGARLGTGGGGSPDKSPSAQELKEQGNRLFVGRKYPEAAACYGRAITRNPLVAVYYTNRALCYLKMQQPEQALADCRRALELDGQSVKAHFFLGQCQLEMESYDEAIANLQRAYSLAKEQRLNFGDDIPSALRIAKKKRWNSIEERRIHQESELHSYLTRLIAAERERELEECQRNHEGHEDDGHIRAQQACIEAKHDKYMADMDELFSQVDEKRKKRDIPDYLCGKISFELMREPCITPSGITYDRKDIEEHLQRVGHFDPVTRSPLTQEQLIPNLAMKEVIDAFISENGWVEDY

Tests used:
[1] = target: T1, Endogenous ALDH1L1 of NIH3T3 cells (mouse (endogenous in NIH3T3)) (UniProt Q8R0Y6); experiment: pull-down; NIH3T3 lysate loaded on the folate-affinity column, which retains endogenous ALDH1L1; stepwise elution with 0.5, 1.0 and 2.0 M KCl, then 5 and 20 mM folic acid in 2.0 M KCl; fractions analysed by SDS-PAGE/Western blot
T1 sequence: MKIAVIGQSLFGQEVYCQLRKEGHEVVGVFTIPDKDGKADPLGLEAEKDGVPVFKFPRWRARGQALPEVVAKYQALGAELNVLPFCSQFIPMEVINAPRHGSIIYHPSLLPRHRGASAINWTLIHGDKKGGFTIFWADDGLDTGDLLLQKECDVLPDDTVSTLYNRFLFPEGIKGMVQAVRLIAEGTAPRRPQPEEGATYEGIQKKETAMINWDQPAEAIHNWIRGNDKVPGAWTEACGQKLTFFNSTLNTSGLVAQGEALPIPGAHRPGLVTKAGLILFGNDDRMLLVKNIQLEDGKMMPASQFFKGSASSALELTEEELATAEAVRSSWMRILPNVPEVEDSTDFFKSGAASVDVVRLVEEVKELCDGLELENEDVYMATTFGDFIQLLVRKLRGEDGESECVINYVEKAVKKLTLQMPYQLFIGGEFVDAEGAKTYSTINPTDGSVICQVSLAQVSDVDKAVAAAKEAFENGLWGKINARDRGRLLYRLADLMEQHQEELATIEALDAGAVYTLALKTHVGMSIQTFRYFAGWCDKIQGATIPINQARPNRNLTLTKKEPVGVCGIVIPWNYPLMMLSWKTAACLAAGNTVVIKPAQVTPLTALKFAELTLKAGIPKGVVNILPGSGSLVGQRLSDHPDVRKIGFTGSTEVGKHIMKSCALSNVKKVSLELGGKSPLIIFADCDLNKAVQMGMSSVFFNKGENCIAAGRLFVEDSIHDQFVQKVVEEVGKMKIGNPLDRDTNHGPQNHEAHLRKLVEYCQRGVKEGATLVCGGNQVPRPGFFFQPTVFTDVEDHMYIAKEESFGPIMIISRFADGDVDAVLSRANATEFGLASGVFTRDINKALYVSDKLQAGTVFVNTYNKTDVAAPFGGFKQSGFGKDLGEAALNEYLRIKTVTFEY

[2] = target: T1, Endogenous ALDH1L1 of NIH3T3 cells (mouse (endogenous in NIH3T3)); experiment: co-IP; NIH3T3 lysate (RIPA buffer), immunoprecipitated with ALDH1L1-specific antibody (protein G Sepharose or Surebeads) or with anti-HSP90 antibody (protein A magnetic beads), 4 °C; Western blot with ALDH1L1-, HSP90- and CHIP-specific antibodies

binding [1]: binds
binding [2]: binds
Substance: Endogenous E3 ubiquitin-protein ligase CHIP of NIH3T3 cells (from UniProt Q9WUD1 1-304) (enzyme)
